Reference: PubChem BioAssay AID1259327 (Drosophila RNAi Screening Center, 2017)

Screen: 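Data from controls in screens of zinc and manganese toxicity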
Cell system: Drosophila S2R+ cells
Reagents: long dsRNA against Drosophila genes
Time to read-out: 5 days (water added on day 4, read one day later)
Conditions: water added as vehicle, no metal, one day before read-out
Detection: 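Total ATP measured by luciferase light, scaled to plate mean, duplicates averaged, then z-scored across plates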
Scale: ATP z-score: higher = more total ATP than typical wells; ATP luminescence: higher = more total ATP
Call rule: 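a hit is any knock-down whose absolute ATP z-score is greater than 1.5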
Calls: active = hit: ATP up or down; inactive = no clear ATP change
The deposit covers about 3,100 reagents; this is a random part of them. Of all reagents, 378 (12%) got an active call. 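Hits include both directions; z-score sign shows ATP rise or fall; raw luminescence values are not plate-normalised.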 Reagents against one gene are numbered here. A plus sign joins genes that one reagent is predicted to hit. No sequences are given here. Not stated in the record: the amount of reagent.

no.	gene	dsRNA no.	ATP z-score, duplicate mean	ATP luminescence, replicate 1 (RLU)	ATP luminescence, replicate 2 (RLU)	call
1	Ephrin	1	-1.04	5.56e5	6.09e5	inactive
2	Ephrin	2	0.22	5.06e5	4.31e5	inactive
3	Ephrin	3	0.503	4.85e5	4.87e5	inactive
4	Grl40a (Gustatory receptor-like 40a)	1	2.01	9.53e5	9.70e5	active
5	Grl40a (Gustatory receptor-like 40a)	2	1.39	6.02e5	5.16e5	inactive
6	Zip99C (Zinc/iron regulated transporter-related protein 99C)	1	-0.944	5.97e5	6.19e5	inactive
7	CG12974	1	0.238	1.02e6	8.37e5	inactive
8	CG12974	2	-1.04	3.79e5	4.10e5	inactive
9	CG13248	1	-0.159	8.87e5	8.63e5	inactive
10	CG13248	2	-0.732	9.00e5	7.85e5	inactive
11	CG33298	1	-0.117	7.21e5	7.07e5	inactive
12	CG33298	2	0.16	4.69e5	5.13e5	inactive
13	CG18549	1	-0.676	2.78e5	6.64e5	inactive
14	CG18549	2	-0.161	7.89e5	8.16e5	inactive
15	140up (upstream of RpII140)	1	-0.561	6.71e5	6.25e5	inactive
16	140up (upstream of RpII140)	2	-0.136	8.43e5	7.73e5	inactive
17	S (Star)	1	-1.58	6.65e5	6.43e5	active
18	S (Star)	2	2.02	6.79e5	5.00e5	active
19	Tmc (Transmembrane channel-like)	1	0.134	9.48e5	8.81e5	inactive
20	rt (rotated abdomen)	1	-0.308	8.58e5	8.53e5	inactive
21	rt (rotated abdomen)	2	-0.113	4.38e5	4.52e5	inactive
22	PGRP-SD (Peptidoglycan recognition protein SD)	1	-0.0583	8.93e5	8.84e5	inactive
23	cry (cryptochrome)	1	-0.456	2.95e5	6.71e5	inactive
24	cry (cryptochrome)	2	-1.49	3.78e5	3.50e5	inactive
25	CG33253	1	-0.336	6.00e5	8.19e5	inactive
26	CG33253	2	-0.679	3.82e5	4.57e5	inactive
27	Dic4	1	-0.489	8.33e5	8.30e5	inactive
28	asRNA:CR30267 + CG42260	1	0.0257	8.99e5	7.59e5	inactive
29	Ir60b (Ionotropic receptor 60b)	1	0.197	7.85e5	7.10e5	inactive
30	CCHa1-R (CCHamide-1 receptor)	1	0.163	7.19e5	8.03e5	inactive
31	CCHa1-R (CCHamide-1 receptor)	2	0.4	6.14e5	6.98e5	inactive
32	CG33090	1	0.128	4.18e5	5.63e5	inactive
33	CG33090	2	0.0875	9.77e5	1.09e6	inactive
34	ppk25 (pickpocket 25)	1	-1.09	5.49e5	4.93e5	inactive
35	ppk25 (pickpocket 25)	2	1.56	9.31e5	9.54e5	active
36	Corin	1	-0.53	8.45e5	6.81e5	inactive
37	Corin	2	-0.669	4.11e5	4.29e5	inactive
38	mnd (minidiscs)	1	-0.851	7.88e5	7.81e5	inactive
39	mnd (minidiscs)	2	-0.948	4.00e5	4.02e5	inactive
40	CG6901	1	-0.519	2.80e5	6.95e5	inactive
41	CG6901	2	1	8.17e5	9.40e5	inactive
42	5-HT1A (5-hydroxytryptamine (serotonin) receptor 1A)	1	-1.36	4.72e5	5.21e5	inactive
43	5-HT1A (5-hydroxytryptamine (serotonin) receptor 1A)	2	0.503	1.01e6	1.07e6	inactive
44	Gli (Gliotactin)	1	-0.0634	7.01e5	7.37e5	inactive
45	Gli (Gliotactin)	2	-0.959	4.77e5	3.41e5	inactive
46	CG13014	1	-0.462	6.66e5	7.20e5	inactive
47	CG13014	2	1	5.56e5	7.75e5	inactive

Individual results from above:
Result for CG13248 #1 in “ATP luminescence, replicate 1 (RLU)”: 8.87e5
Value for CG18549 #1 under “ATP luminescence, replicate 2 (RLU)”: 6.64e5
Result of CG33253 #2 under “ATP luminescence, replicate 1 (RLU)”: 3.82e5
asRNA:CR30267 + CG42260, ATP z-score, duplicate mean = 0.0257
For “call”, Ephrin #3 has inactive
Result for Corin #2 under “ATP luminescence, replicate 2 (RLU)”: 4.29e5
